± gives the standard deviation of the averaged measurements. Only a part is listed here, and it is no random draw.
Compound: Nc1ncnc2c1ncn2[C@@H]1O[C@H](COP(=O)(O)OP(=O)(O)OP(=O)(O)O)[C@@H](O)[C@H]1O [adenosine triphosphate]
Test: NP40-soluble protein abundance relative to vehicle (solubility fold change) (ratio); higher = more soluble protein in presence of ATP
How it was run: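 Data come from three independent experiments in which Dounce-homogenised Jurkat crude lysate was treated at eight concentrations from 0.1 to 10 mM. Treatment ran 10 min at room temperature and then 3 min at 37 °C, after which 0.8% NP40 and benzonase were added for 60 min at 4 °C before ultracentrifugation. The supernatant underwent TMT labelling and LC-MS/MS, and vsn-normalised intensities were expressed as fold change against the detergent-processed vehicle in each replicate.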

The chains behind the UniProt entries cited, without tags or fusion partners. Where a name states a change or a piece, a line headed by the entry shows the natural chain unless it says otherwise.
UniProt Q96AJ1: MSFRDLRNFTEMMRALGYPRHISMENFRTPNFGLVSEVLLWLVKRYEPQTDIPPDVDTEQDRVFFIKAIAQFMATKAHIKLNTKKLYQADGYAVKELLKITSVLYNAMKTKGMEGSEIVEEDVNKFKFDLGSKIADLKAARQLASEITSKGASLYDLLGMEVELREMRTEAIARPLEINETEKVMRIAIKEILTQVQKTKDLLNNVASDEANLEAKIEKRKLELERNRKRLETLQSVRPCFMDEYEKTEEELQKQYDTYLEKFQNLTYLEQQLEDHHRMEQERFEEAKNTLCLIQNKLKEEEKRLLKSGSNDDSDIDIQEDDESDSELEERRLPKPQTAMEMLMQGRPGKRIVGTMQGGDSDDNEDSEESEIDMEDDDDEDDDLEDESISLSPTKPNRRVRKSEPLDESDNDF
UniProt O60291: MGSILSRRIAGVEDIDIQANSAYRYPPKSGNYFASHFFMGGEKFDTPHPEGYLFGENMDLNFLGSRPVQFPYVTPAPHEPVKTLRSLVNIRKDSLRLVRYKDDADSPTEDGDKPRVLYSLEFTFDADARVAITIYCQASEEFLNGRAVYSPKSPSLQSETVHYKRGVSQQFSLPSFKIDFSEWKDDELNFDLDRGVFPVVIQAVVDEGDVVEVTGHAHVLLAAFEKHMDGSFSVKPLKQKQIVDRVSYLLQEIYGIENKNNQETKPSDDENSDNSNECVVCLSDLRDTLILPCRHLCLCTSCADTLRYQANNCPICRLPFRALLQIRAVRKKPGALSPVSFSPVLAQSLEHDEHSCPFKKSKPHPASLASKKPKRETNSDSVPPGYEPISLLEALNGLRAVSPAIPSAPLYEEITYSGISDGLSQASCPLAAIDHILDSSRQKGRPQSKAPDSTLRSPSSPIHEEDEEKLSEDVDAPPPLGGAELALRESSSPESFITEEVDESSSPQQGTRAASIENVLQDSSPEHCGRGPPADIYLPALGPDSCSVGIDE
UniProt Q8IUR7, whole entry: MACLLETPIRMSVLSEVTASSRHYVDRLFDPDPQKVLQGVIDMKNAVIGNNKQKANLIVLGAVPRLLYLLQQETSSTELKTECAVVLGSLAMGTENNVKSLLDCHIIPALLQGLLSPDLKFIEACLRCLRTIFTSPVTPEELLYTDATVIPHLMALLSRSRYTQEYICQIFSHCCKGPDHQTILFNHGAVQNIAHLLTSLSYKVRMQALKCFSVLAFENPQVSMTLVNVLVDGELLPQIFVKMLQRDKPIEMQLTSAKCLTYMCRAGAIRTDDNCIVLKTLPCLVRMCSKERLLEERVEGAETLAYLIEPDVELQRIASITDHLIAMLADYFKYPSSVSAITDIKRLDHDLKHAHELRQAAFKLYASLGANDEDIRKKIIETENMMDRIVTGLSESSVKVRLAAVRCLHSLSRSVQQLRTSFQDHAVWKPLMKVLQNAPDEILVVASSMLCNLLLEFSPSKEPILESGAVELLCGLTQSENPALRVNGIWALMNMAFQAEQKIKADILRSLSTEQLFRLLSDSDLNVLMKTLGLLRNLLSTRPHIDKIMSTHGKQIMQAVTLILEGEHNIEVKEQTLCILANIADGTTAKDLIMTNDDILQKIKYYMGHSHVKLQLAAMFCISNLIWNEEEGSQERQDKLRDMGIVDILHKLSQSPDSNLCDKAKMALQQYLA
UniProt Q9BTW9: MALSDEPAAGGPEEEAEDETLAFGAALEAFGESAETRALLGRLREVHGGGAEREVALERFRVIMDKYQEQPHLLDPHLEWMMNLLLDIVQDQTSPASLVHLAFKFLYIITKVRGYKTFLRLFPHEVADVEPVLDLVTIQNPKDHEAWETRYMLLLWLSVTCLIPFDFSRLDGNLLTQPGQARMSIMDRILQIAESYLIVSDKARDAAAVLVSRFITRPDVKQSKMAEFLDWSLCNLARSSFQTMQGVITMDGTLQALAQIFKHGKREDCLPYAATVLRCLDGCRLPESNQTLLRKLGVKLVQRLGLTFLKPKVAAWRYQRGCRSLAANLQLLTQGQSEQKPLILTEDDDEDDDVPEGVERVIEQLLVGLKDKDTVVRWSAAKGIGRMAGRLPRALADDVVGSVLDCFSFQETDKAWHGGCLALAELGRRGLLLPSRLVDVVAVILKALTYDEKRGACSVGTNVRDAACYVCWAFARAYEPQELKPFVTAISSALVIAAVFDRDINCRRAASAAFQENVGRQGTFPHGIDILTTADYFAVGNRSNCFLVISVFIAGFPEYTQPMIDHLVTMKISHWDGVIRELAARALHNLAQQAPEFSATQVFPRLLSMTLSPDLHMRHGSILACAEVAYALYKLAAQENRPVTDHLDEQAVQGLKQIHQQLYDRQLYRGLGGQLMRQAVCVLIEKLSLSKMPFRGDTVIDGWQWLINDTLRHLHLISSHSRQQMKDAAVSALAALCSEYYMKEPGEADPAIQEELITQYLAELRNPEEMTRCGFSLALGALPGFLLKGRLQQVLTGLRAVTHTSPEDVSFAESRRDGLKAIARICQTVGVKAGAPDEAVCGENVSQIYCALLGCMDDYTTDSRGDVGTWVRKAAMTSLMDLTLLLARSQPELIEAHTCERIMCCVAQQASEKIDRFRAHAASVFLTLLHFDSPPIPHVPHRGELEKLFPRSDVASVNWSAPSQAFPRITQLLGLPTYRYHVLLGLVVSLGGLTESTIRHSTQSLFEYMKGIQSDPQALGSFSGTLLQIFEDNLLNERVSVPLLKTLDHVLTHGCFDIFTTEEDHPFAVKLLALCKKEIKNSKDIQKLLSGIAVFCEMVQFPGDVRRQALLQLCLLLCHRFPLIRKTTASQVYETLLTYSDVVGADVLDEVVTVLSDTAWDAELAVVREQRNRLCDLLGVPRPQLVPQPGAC
UniProt P52824: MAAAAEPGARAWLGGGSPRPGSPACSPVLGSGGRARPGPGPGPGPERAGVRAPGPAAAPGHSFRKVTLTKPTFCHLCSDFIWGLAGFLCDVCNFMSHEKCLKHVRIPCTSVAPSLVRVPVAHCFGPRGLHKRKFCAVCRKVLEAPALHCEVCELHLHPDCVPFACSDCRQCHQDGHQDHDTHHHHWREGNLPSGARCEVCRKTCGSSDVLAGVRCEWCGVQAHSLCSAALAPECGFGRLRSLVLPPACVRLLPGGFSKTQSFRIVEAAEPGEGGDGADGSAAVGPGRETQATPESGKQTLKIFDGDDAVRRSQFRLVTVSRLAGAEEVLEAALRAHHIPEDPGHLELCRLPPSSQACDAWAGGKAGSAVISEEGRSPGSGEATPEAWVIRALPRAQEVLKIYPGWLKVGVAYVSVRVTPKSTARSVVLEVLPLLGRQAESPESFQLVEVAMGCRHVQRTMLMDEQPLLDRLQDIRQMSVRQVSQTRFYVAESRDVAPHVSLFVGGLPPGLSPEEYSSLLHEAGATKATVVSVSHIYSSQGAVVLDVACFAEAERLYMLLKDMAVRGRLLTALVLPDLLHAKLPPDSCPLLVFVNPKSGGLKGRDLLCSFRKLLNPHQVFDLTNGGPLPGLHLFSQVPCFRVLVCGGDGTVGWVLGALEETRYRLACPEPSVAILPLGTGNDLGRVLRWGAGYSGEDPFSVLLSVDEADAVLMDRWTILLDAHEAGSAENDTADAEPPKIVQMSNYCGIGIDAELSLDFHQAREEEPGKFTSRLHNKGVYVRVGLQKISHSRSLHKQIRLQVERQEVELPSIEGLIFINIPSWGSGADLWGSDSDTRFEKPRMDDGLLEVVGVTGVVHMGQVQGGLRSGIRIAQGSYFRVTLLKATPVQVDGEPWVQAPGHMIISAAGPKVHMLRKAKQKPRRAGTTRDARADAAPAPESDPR
UniProt P09493, whole entry: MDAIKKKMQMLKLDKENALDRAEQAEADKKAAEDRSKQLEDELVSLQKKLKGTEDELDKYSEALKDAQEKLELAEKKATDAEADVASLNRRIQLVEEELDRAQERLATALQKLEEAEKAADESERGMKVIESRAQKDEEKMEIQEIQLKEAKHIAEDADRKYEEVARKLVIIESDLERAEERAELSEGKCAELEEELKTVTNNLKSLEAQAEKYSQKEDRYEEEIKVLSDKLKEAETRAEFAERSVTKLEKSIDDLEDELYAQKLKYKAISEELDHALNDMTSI
UniProt P15056, whole entry: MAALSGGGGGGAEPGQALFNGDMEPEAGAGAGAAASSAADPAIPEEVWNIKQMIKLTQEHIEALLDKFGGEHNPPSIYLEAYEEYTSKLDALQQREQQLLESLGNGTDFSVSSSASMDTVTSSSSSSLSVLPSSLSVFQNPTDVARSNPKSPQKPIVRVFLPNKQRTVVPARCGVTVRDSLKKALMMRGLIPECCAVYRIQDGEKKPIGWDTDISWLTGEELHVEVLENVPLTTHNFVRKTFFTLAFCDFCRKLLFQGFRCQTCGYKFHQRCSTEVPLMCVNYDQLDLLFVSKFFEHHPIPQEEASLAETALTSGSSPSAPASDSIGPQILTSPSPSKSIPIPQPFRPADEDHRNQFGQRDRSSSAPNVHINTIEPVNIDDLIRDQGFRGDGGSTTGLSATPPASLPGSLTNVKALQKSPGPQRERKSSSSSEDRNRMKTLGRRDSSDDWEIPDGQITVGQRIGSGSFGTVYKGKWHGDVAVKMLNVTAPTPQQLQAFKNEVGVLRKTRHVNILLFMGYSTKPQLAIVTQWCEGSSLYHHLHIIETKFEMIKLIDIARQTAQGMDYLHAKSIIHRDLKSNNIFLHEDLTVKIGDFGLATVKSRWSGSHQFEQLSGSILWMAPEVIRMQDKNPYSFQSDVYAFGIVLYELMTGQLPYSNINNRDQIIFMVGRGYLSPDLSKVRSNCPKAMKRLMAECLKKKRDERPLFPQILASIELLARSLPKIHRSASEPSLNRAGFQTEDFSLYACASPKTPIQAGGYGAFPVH
UniProt Q16822, whole entry: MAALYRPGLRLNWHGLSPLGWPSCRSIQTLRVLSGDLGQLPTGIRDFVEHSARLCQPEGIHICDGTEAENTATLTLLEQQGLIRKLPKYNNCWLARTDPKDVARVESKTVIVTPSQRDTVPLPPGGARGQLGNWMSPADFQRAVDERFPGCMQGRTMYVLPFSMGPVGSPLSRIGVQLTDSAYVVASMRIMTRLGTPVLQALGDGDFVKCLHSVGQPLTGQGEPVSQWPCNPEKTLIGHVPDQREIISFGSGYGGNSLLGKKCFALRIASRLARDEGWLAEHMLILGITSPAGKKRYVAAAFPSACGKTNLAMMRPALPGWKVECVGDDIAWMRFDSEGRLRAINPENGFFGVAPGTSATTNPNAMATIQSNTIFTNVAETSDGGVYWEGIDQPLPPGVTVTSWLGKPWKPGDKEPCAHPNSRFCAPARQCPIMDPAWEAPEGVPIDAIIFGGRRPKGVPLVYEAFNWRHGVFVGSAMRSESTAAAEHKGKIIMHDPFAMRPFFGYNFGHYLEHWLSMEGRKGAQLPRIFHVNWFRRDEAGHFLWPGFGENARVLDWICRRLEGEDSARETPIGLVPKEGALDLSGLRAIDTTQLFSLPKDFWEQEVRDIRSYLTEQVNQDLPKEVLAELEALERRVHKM
UniProt Q5JPH6: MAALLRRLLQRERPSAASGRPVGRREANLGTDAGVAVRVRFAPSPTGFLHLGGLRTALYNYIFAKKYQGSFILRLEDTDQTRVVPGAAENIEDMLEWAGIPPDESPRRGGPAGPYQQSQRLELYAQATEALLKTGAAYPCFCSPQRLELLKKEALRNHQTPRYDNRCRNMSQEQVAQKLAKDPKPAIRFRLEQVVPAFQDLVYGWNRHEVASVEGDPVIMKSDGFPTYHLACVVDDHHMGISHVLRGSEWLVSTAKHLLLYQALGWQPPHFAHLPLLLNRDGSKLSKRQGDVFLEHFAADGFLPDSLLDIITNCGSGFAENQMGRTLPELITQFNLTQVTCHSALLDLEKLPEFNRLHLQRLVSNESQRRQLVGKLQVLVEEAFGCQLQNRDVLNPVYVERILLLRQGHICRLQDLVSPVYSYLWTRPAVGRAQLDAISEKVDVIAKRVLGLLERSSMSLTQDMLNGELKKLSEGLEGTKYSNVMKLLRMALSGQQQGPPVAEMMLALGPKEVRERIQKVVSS
UniProt Q14849, whole entry: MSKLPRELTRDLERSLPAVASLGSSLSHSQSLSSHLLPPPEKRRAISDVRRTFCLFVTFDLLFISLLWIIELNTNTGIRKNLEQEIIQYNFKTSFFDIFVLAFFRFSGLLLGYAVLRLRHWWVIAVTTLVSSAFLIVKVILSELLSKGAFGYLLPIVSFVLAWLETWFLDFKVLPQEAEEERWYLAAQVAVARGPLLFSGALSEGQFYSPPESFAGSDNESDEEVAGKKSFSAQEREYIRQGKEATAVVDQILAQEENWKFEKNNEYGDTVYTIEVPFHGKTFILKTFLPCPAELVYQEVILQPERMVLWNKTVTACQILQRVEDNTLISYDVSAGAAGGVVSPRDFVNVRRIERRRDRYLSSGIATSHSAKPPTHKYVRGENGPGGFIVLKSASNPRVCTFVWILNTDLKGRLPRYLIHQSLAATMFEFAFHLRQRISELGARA

| Target | NP40-soluble protein abundance (concentration: 1mM) | NP40-soluble protein abundance (concentration: 2mM) | NP40-soluble protein abundance (concentration: 4mM) | NP40-soluble protein abundance (concentration: 6mM) | NP40-soluble protein abundance (concentration: 8mM) | NP40-soluble protein abundance (concentration: 10mM) |
| --- | --- | --- | --- | --- | --- | --- |
| I3L121 and related entries (UniProt Q96AJ1) | 1.01 ± 0.09 | 1.03 ± 0.17 | 1.01 ± 0.13 | 1.12 ± 0.2 | 0.985 ± 0.038 | 1.04 ± 0.14 |
| K7EKE6 and related entries (UniProt P36776) | 1.01 ± 0.045 | 0.998 ± 0.061 | 0.977 ± 0.041 | 0.963 ± 0.064 | 0.996 ± 0.036 | 0.984 ± 0.054 |
| I3L2J0 (UniProt Q96RK0) | 0.94 ± 0.058 | 0.955 ± 0.11 | 0.933 ± 0.084 | 0.946 ± 0.084 | 0.921 ± 0.06 | 0.931 ± 0.098 |
| K7EPJ5 and related entries (UniProt O60291) | 0.927 ± 0.035 | 0.916 ± 0.044 | 0.899 ± 0.027 | 0.961 ± 0.031 | 0.905 ± 0.02 | 0.888 ± 0.018 |
| H0Y7L2 and related entries (UniProt Q96N67) | 1.24 ± 0.045 | 1.21 ± 0.014 | 1.21 ± 0.019 | 1.17 ± 0.023 | 1.26 ± 0.0048 | 1.2 ± 0.058 |
| K7EIU8 and related entries (UniProt Q13485) | 1 ± 0.086 | 0.986 ± 0.039 | 0.943 ± 0.015 | 0.9 ± 0.095 | 0.968 ± 0.069 | 1 ± 0.035 |
| H0Y360 and related entries (UniProt Q01433) | 0.956 ± 0.025 | 0.953 ± 0.023 | 0.936 ± 0.014 | 0.915 ± 0.015 | 0.969 ± 0.013 | 0.952 ± 0.046 |
| H3BUJ7 and related entries (UniProt Q66K89) | 0.963 ± 0.21 | 1.02 ± 0.024 | 1.1 ± 0.13 | 0.946 ± 0.12 | 1.14 ± 0.17 | 1.13 ± 0.029 |
| G5E9V6 and related entries (UniProt Q8IUR7) | 0.983 ± 0.04 | 0.927 ± 0.012 | 0.938 ± 0.023 | 0.887 ± 0.065 | 0.951 ± 0.051 | 0.953 ± 0.063 |
| J3KNZ9 (UniProt Q9HAH7) | 1.09 ± 0.06 | 1.08 ± 0.11 | 1.1 ± 0.17 | 1.12 ± 0.12 | 1.02 ± 0.054 | 1.07 ± 0.16 |
| H3BRQ0 and related entries (UniProt Q96CD2) | 0.96 ± 0.021 | 1 ± 0.021 | 1.02 ± 0.037 | 1.01 ± 0.12 | 0.952 ± 0.067 | 0.939 ± 0.025 |
| J3KR97 and related entries (UniProt Q9BTW9) | 1 ± 0.1 | 0.99 ± 0.082 | 0.973 ± 0.035 | 0.866 ± 0.13 | 0.977 ± 0.032 | 0.981 ± 0.056 |
| K7ES11 and related entries (UniProt Q9C0C9) | 0.953 ± 0.018 | 0.9618 ± 0.0091 | 0.918 ± 0.012 | 0.95 ± 0.014 | 0.918 ± 0.0099 | 0.9279 ± 0.0068 |
| J3KNV1 and related entries (UniProt O60281) | 1.06 ± 0.073 | 1.1 ± 0.023 | 1.12 ± 0.085 | 1.09 ± 0.019 | 1.06 ± 0.076 | 1.07 ± 0.031 |
| J3QRU1 and related entries (UniProt P07947) | 0.995 ± 0.13 | 1.01 ± 0.12 | 1.04 ± 0.11 | 0.997 ± 0.18 | 0.983 ± 0.11 | 1.01 ± 0.066 |
| J3QTA2 and related entries (UniProt Q99933) | 0.999 ± 0.02 | 1.05 ± 0.053 | 1.07 ± 0.096 | 1.07 ± 0.076 | 1.03 ± 0.032 | 1.02 ± 0.053 |
| H3BRN4 and related entries (UniProt P80404) | 0.986 ± 0.067 | 1 ± 0.062 | 1.01 ± 0.037 | 0.908 ± 0.089 | 0.985 ± 0.031 | 0.98 ± 0.038 |
| H7BYJ1 and related entries (UniProt Q969K3) | 0.952 ± 0.023 | 0.922 ± 0.047 | 0.948 ± 0.067 | 0.928 ± 0.037 | 0.919 ± 0.044 | 0.915 ± 0.075 |
| H0YA20 and related entries (UniProt P52824) | 0.999 ± 0.15 | 0.955 ± 0.086 | 0.993 ± 0.033 | 1.01 ± 0.043 | 1.05 ± 0.14 | 1.01 ± 0.12 |
| H7BYY1 and related entries (UniProt P09493) | 1.04 ± 0.052 | 1.01 ± 0.11 | 1.07 ± 0.1 | 1.13 ± 0.062 | 1.28 ± 0.2 | 0.904 ± 0.35 |
| H7BYP4 and related entries (UniProt Q9H930) | 0.944 ± 0.09 | 0.959 ± 0.19 | 1 ± 0.014 | 0.97 ± 0.037 | 0.968 ± 0.081 | 0.985 ± 0.14 |
| K7ER95 and related entries (UniProt Q92918) | 1.02 ± 0.021 | 1.02 ± 0.025 | 1.01 ± 0.029 | 0.962 ± 0.055 | 1 ± 0.02 | 1.012 ± 0.009 |
| H7C560 and related entries (UniProt P15056) | 1.06 ± 0.041 | 1.06 ± 0.027 | 1.01 ± 0.059 | 1.02 ± 0.045 | 1.05 ± 0.058 | 1.01 ± 0.083 |
| H0YM31 and related entries (UniProt Q16822) | 0.993 ± 0.036 | 0.9965 ± 0.0068 | 0.998 ± 0.048 | 0.947 ± 0.03 | 0.96 ± 0.067 | 0.962 ± 0.028 |
| H3BTB7 and related entries (UniProt Q5JPH6) | 0.989 ± 0.057 | 0.958 ± 0.052 | 0.962 ± 0.044 | 0.95 ± 0.096 | 0.957 ± 0.062 | 0.934 ± 0.036 |
| J3QS41 and related entries (UniProt P42694) | 1.05 ± 0.064 | 1.03 ± 0.036 | 1.05 ± 0.067 | 1.01 ± 0.033 | 1.04 ± 0.042 | 1.06 ± 0.039 |
| H0Y679 and related entries (UniProt Q92733) | 1.01 ± 0.074 | 1.03 ± 0.016 | 0.996 ± 0.049 | 0.992 ± 0.068 | 0.952 ± 0.048 | 0.974 ± 0.028 |
| H3BTA2 and related entries (UniProt P60510) | 0.99 ± 0.081 | 0.978 ± 0.077 | 0.976 ± 0.056 | 0.965 ± 0.076 | 1.05 ± 0.055 | 1.01 ± 0.021 |
| H0YC40 and related entries (UniProt Q08722) | 0.909 ± 0.023 | 0.886 ± 0.035 | 0.905 ± 0.045 | 0.925 ± 0.015 | 0.872 ± 0.043 | 0.835 ± 0.078 |
| J3QLM1 and related entries (UniProt Q14849) | 1.14 ± 0.27 | 1.07 ± 0.13 | 1.1 ± 0.23 | 1.07 ± 0.052 | 1.19 ± 0.021 | 1.04 ± 0.21 |

Part of the list above, with tabs.
Target	NP40-soluble protein abundance (concentration: 1mM)	NP40-soluble protein abundance (concentration: 2mM)	NP40-soluble protein abundance (concentration: 4mM)	NP40-soluble protein abundance (concentration: 6mM)	NP40-soluble protein abundance (concentration: 8mM)	NP40-soluble protein abundance (concentration: 10mM)
H0YA20 and related entries (UniProt P52824)	0.999 ± 0.15	0.955 ± 0.086	0.993 ± 0.033	1.01 ± 0.043	1.05 ± 0.14	1.01 ± 0.12
H7BYY1 and related entries (UniProt P09493)	1.04 ± 0.052	1.01 ± 0.11	1.07 ± 0.1	1.13 ± 0.062	1.28 ± 0.2	0.904 ± 0.35

From the supplement of paper PMC6411743
